Laboratory results: PubChem BioAssay AID504791 (Drosophila RNAi Screening Center, 2011)
Purpose: 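Genes whose knock-down strengthens or weakens small-RNA reporter silencing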 (primary screen). Cells: Drosophila S2-derived reporter cells. Reagent: long dsRNA against Drosophila genes, about 150-250 ng dsRNA per well (siRNA assay); about 80-120 ng (miRNA assay). Time to read-out: about 5 days (siRNA assay); about 4 days (miRNA assay). Conditions: copper sulfate induction of reporters: 25 µM (siRNA assay); 200 mM stated (miRNA assay), 1-2 days before reading. Detection: 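Dual luciferase assay: Renilla to firefly signal ratio in each well, scaled to the mean ratio of its plate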. Units: stable assay Renilla, run 1 in luminescence; stable assay firefly, run 1 in luminescence. Rule for the call: 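First-pass picks had plate-scaled ratios over 1.5 for the siRNA assay, over 1.6 for the miRNA assay, or under 0.6; two distinct dsRNAs had to score alike on retest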.
The deposit covers about 23,000 reagents; shown is a random part of those that have a named target and a result. Over the whole deposit, 199 (0.86%) were called active. 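Plate-scaled ratios behind the calls are not deposited; printed light signals are raw; many rows marked increased or decreased are still called inactive.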 Reagents against one gene are numbered here. A plus sign joins genes that one reagent is predicted to hit. No sequences are given here. Not given: the direction of the score.

After knock-down of Cpr49Ab (Cuticular protein 49Ab), the screen gave stable assay Renilla, run 1 = 4950; stable assay firefly, run 1 = 3.10e5; inactive.
CG17078 showed stable assay Renilla, run 1 = 7250; stable assay firefly, run 1 = 3.90e5; inactive.
For PQBP1 (Poly-glutamine tract binding protein 1) the deposit lists stable assay Renilla, run 1 = 11035; stable assay firefly, run 1 = 4.50e5; inactive.
Against Cpr62Bc (Cuticular protein 62Bc), the values are stable assay Renilla, run 1 = 4894; stable assay firefly, run 1 = 2.85e5; inactive.
After knock-down of ND-SGDH (NADH dehydrogenase (ubiquinone) SGDH subunit), the screen gave stable assay Renilla, run 1 = 6472; stable assay firefly, run 1 = 4.41e5; inactive.
Knock-down of CG31835 + CG42585 resulted in: stable assay Renilla, run 1 = 5611; stable assay firefly, run 1 = 4.52e5; inactive.
After knock-down of CG18477 + CG31780, the record shows stable assay Renilla, run 1 = 6722; stable assay firefly, run 1 = 3.54e5; inactive.
After knock-down of insc (inscuteable) the results were stable assay Renilla, run 1 = 6902; stable assay firefly, run 1 = 3.81e5; inactive.
For Psf1 (Partner of Sld Five 1), the entry reads stable assay Renilla, run 1 = 5726; stable assay firefly, run 1 = 5.28e5; inactive.
PK1-R (Pyrokinin 1 receptor) gave stable assay Renilla, run 1 = 7479; stable assay firefly, run 1 = 3.81e5; inactive.
After knock-down of CG1468, the screen gave stable assay Renilla, run 1 = 7083; stable assay firefly, run 1 = 4.15e5; inactive.
With knock-down of pelo (pelota) the results were stable assay Renilla, run 1 = 18948; stable assay firefly, run 1 = 1.00e6; inactive.
With knock-down of TyrRII (Tyramine receptor II) the results were stable assay Renilla, run 1 = 6618; stable assay firefly, run 1 = 4.46e5; inactive.

Single entries from the entries so far.
Value of PK1-R (Pyrokinin 1 receptor) in “stable assay firefly, run 1”: 3.81e5
For “call”, PQBP1 (Poly-glutamine tract binding protein 1) is entered as inactive
Under “stable assay Renilla, run 1”, CG18477 + CG31780 has 6722

Additional results:
hts (hu li tai shao) gave stable assay Renilla, run 1 = 6495; stable assay firefly, run 1 = 2.87e5; inactive.
CG5339 gave stable assay Renilla, run 1 = 13892; stable assay firefly, run 1 = 1.27e6; inactive.
Against CG9281, the values are stable assay Renilla, run 1 = 7516; stable assay firefly, run 1 = 4.35e5; inactive.
Depletion of CG34457 came out at: stable assay Renilla, run 1 = 6191; stable assay firefly, run 1 = 2.78e5; inactive.
After knock-down of CG18787 + CG18789, the screen gave stable assay Renilla, run 1 = 8683; stable assay firefly, run 1 = 3.96e5; inactive.
After knock-down of Sgt1 (suppressor-of-G2-allele-of-skp1), the screen gave stable assay Renilla, run 1 = 8499; stable assay firefly, run 1 = 4.48e5; inactive.
Kat60 (Katanin 60) showed stable assay Renilla, run 1 = 7342; stable assay firefly, run 1 = 5.08e5; inactive.
Against ppk26 (pickpocket 26) the deposit lists stable assay Renilla, run 1 = 7162; stable assay firefly, run 1 = 4.70e5; inactive.
For CG8944 #1, the entry reads stable assay Renilla, run 1 = 4311; stable assay firefly, run 1 = 3.42e5; inactive.
Depletion of CG8944 #2 resulted in: stable assay Renilla, run 1 = 9921; stable assay firefly, run 1 = 5.63e5; inactive.
With knock-down of slbo (slow border cells), the screen gave stable assay Renilla, run 1 = 3939; stable assay firefly, run 1 = 4.67e5; inactive.
Against CG5167 the deposit lists stable assay Renilla, run 1 = 6334; stable assay firefly, run 1 = 3.36e5; inactive.
With knock-down of eIF2Balpha (eukaryotic translation initiation factor 2B subunit alpha), the record shows stable assay Renilla, run 1 = 8035; stable assay firefly, run 1 = 5.00e5; inactive.
Silencing of CG14118 came out at: stable assay Renilla, run 1 = 6027; stable assay firefly, run 1 = 3.61e5; inactive.
Knock-down of CG5068 resulted in: stable assay Renilla, run 1 = 7899; stable assay firefly, run 1 = 4.95e5; inactive.
